According to paper PMC8543921:

Biological target: T1, PAG1-FLAG (Arabidopsis thaliana) (UniProt O23715)
T1 sequence: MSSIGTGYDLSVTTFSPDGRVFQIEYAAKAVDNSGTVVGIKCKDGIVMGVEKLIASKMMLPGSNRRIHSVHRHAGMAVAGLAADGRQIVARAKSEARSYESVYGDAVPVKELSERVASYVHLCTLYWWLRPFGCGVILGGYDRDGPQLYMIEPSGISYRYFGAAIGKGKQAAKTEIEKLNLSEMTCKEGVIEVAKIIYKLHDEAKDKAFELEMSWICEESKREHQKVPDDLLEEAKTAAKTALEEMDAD
Assay: co-IP; PAG1-FLAG on anti-FLAG M2 resin from seedling lysate, lysis and co-IP without exogenous ATP, 12-h time point, eluates immunoblotted

Substance: HSP70
- binding: binds

Results are given in words; binding and its absence hold for the method and conditions named. In cells and extracts the contact can be indirect. Binding calls can cover weak binding; strength is not graded here. Where a sequence is shown, tags or fusion partners need not be part of it.
